Results are given in words; binding and its absence hold for the method and conditions named. In cells and extracts the contact can be indirect. Here binding means that the protein was enriched with, or labelled near, the bait; the list need not be complete.
What follows are molecules tested against Chd1-Flag (from the Chd1-Flag knock-in mouse ES cell line) (mouse) (UniProt P40201) (assay: affinity purification with mass spectrometry; Flag IP from nuclear extract of Chd1-Flag knock-in mouse ES cells at 150 mM salt; IgG IP as negative control; gel slices, trypsin, LC-MS/MS).

The chains behind the UniProt entries cited, without tags or fusion partners.
UniProt P40201: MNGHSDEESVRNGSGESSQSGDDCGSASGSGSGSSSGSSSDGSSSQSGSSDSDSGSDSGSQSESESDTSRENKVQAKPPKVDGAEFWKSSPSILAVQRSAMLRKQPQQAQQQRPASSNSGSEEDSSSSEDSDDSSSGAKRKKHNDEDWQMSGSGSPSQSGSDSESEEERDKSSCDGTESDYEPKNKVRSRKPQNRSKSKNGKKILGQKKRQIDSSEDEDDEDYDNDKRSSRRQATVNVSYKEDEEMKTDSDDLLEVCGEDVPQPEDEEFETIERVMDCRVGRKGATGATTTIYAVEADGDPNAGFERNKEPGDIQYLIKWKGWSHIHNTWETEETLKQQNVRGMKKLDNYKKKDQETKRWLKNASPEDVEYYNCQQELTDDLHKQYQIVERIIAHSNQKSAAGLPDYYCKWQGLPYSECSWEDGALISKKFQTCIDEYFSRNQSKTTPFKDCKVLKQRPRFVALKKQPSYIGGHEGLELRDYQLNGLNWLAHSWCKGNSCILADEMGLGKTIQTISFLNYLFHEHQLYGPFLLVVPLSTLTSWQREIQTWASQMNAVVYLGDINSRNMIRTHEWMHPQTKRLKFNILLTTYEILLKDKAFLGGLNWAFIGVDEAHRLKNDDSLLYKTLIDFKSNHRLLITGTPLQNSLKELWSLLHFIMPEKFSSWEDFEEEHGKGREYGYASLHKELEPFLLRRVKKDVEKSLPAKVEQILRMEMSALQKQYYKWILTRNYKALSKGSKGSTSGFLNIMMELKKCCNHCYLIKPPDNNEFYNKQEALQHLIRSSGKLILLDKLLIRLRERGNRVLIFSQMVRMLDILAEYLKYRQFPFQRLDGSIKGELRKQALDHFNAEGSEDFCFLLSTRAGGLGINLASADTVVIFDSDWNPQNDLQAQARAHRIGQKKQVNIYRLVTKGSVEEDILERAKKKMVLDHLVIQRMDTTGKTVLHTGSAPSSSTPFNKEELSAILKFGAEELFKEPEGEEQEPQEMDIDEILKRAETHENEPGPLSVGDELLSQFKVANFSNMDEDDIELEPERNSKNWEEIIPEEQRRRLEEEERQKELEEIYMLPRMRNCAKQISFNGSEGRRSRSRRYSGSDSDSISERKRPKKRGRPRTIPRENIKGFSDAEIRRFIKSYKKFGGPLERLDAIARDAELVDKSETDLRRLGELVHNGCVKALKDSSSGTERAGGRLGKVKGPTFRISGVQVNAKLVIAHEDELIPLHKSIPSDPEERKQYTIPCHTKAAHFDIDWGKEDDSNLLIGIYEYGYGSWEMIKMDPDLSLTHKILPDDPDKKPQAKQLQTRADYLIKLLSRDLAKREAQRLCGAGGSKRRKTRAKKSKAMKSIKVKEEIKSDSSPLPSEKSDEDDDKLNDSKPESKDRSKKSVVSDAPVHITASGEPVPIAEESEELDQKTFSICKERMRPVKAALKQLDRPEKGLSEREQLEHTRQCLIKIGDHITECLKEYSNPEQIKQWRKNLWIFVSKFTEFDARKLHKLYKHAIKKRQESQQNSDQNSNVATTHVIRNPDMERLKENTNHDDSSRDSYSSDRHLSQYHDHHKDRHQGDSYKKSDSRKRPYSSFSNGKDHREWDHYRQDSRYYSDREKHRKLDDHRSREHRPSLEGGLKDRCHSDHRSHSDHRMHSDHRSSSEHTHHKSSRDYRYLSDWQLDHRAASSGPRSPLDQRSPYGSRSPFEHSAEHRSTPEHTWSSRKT
UniProt A2A654: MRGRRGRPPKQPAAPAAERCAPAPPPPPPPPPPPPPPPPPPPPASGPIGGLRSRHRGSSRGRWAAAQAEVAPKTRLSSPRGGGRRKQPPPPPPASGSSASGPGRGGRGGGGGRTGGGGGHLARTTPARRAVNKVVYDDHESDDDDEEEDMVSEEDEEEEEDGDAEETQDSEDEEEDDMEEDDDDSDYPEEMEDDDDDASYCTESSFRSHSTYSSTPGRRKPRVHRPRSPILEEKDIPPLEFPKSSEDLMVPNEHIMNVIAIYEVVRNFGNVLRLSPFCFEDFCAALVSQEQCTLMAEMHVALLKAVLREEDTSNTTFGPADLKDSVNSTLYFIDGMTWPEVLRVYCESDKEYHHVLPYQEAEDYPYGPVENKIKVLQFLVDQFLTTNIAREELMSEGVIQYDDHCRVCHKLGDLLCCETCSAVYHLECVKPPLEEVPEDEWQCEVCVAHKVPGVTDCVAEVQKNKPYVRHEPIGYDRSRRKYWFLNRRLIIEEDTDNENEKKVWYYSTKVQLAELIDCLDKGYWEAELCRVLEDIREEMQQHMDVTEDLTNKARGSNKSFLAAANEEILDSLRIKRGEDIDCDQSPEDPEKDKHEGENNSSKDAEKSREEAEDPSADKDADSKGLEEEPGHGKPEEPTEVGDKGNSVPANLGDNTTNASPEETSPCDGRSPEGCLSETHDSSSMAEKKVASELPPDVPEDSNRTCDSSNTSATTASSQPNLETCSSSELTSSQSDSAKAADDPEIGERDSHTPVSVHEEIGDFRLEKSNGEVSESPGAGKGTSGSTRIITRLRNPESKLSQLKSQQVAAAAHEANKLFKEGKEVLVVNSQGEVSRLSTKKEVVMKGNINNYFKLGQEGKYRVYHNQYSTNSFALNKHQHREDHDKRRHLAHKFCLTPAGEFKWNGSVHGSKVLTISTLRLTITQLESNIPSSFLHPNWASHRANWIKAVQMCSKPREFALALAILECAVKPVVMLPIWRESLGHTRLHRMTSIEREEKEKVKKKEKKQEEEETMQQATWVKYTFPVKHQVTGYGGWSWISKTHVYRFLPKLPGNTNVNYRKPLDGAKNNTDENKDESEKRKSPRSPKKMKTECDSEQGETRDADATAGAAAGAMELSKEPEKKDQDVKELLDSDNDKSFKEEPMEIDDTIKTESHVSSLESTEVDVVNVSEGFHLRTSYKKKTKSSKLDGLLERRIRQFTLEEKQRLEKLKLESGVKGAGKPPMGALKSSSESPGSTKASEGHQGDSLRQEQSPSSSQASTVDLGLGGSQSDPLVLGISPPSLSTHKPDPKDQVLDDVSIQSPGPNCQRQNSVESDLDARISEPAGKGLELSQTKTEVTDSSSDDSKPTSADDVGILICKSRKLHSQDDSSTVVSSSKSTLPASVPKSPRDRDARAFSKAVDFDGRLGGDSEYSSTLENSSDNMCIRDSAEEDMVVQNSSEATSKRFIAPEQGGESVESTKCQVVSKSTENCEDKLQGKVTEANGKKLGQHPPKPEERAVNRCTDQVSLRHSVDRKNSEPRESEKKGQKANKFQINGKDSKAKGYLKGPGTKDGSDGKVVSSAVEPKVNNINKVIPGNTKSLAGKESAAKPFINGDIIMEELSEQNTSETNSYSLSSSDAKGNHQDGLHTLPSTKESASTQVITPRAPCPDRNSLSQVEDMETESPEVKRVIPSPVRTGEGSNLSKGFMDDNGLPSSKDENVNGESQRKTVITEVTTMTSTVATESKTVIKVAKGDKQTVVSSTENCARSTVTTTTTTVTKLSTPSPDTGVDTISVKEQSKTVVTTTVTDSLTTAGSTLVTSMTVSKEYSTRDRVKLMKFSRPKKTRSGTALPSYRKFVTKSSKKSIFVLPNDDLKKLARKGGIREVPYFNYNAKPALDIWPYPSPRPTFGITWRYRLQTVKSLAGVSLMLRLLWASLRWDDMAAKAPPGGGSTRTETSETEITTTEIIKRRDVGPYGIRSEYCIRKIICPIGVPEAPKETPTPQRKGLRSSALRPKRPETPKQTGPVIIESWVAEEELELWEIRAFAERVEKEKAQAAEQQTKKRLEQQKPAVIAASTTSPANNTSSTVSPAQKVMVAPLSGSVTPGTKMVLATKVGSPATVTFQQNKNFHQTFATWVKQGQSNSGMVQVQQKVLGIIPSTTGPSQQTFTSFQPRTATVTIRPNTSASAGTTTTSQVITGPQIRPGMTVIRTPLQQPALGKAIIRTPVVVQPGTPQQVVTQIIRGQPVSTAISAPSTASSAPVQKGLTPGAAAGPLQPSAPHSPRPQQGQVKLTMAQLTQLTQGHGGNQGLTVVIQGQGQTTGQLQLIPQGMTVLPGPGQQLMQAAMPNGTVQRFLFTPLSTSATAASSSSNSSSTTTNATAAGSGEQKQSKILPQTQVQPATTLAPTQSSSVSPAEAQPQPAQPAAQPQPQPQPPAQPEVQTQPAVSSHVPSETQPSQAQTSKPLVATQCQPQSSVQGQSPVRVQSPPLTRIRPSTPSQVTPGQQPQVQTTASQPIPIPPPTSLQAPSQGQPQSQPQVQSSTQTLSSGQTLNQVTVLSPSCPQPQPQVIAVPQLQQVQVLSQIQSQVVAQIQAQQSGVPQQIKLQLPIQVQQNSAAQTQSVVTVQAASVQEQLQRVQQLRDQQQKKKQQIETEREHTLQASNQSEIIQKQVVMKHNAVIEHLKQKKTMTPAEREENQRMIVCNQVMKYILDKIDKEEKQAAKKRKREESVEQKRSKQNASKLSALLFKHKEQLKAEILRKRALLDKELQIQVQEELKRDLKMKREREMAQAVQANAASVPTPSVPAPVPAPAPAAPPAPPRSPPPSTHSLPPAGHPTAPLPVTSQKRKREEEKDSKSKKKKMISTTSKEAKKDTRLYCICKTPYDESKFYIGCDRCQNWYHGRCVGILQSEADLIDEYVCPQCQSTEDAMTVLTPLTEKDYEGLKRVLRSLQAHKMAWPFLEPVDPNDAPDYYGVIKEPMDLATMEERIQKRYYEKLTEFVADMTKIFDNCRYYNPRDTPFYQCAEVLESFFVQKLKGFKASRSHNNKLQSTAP
UniProt Q64511: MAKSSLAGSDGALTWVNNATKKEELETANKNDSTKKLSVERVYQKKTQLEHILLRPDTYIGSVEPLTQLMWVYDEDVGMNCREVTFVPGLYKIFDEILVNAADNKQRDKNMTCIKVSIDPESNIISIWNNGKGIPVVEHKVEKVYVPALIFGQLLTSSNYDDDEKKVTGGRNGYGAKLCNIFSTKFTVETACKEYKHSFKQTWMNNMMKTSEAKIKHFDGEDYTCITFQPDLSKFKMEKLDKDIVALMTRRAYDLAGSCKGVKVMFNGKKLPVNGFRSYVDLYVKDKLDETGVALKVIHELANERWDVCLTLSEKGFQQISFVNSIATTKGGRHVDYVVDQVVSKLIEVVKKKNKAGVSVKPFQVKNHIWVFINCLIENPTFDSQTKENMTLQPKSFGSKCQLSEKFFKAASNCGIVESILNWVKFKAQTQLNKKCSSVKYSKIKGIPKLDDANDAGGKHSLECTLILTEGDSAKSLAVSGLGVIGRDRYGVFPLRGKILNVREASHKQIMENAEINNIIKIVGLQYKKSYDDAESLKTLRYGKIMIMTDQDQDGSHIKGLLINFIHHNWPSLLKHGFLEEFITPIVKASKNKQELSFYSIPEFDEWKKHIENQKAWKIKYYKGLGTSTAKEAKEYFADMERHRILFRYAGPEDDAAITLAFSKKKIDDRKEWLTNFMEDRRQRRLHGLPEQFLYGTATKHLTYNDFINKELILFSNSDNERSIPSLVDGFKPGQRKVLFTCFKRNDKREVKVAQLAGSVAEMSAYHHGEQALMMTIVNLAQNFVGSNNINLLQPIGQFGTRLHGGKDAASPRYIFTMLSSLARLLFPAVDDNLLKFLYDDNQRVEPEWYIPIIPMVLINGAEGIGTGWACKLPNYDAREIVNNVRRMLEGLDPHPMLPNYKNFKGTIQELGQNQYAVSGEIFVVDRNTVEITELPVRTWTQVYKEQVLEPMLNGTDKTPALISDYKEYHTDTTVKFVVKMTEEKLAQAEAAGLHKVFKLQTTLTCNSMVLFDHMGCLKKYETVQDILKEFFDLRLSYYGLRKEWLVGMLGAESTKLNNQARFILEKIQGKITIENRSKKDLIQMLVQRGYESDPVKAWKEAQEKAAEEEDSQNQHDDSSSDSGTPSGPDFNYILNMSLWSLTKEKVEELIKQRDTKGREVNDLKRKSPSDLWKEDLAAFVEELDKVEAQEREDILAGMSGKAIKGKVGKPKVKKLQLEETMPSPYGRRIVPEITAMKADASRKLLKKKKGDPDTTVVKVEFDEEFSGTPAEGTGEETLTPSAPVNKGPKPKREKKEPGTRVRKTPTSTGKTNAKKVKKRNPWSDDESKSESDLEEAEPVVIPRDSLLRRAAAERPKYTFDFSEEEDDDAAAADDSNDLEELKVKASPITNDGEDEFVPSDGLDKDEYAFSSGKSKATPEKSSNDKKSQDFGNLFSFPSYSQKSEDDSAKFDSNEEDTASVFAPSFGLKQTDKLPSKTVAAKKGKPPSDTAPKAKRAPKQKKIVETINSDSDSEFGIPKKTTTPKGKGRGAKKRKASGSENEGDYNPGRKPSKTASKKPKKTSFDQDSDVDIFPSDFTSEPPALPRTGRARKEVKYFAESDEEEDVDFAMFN

Molecule	binding
histone variant H2A.X (from UniProt P27661 1-143)	binds
Bptf (from UniProt A2A654 1-3036)	binds
topoisomerase 2β (Top2β) (from UniProt Q64511 1-1612) (enzyme)	binds
Ssrp1 (from UniProt Q08943 1-708)	binds
MRN complex member Mre11 (protein, UniProt Q61216 1-706) MSPTDPLDDEDTFKILVATDIHLGFMEKDAVRGNDTFVTFDEILRLALENEVDFILLGGDLFHENKPSRKTLHSCLELLRKYCMGDRPVQFEVISDQSVNFGFSKFPWVNYQDGNLNISIPVFSIHGNHDDPTGADALCALDVLSCAGFVNHFGRSMSVEKVDISPVLLQKGSTKLALYGLGSIPDERLYRMFVNKKVTMLRPKEDENSWFNLFVIHQNRSKHGNTNFIPEQFLDDFIDLVIWGHEHECKIGPIKNEQQLFYVSQPGSSVVTSLSPGEAVKKHVGLLRIKGRKMNMQKLPLRTVRRFFIEDVVLANHPNLFNPDNPKVTQAIQSFCLEKIEEMLDSAERERLGNPQQPGKPLIRLRVDYSGGFEPFNVLRFSQKFVDRVANPKDVIHFFRHREQKGKTGEEINFGMLITKPASEGATLRVEDLVKQYFQTAEKNVQLSLLTERGMGEAVQEFVDKEEKDAIEELVKYQLEKTQRFLKERHIDALEDKIDEEVRRFRESRQRNTNEEDDEVREAMSRARALRSQSETSTSAFSAEDLSFDTSEQTANDSDDSLSAVPSRGRGRGRGRRGARGQSSAPRGGSQRGRDTGLEITTRGRSSKATSSTSRNMSIIDAFRSTRQQPSRNVAPKNYSETIEVDDSDEDDIFPTNSRADQRWSGTTSSKRMSQSQTAKGVDFESDEDDDDDPFMSSSCPRRNRR	binds
